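A luminescent viability counter-screen in SH-SY5Y cells, roughly two days of compound exposure, with a 4 h thapsigargin challenge at the end.
Each compound ran as a titration series from about 0.00065 to 190 µM.
The number is the fitted potency (AC50, nM) of the viability curve; a lower value means a more potent effect.
Calls come from curve class and fit, so inconclusive covers weak, poorly fitted, top-dose-only or rising curves.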

Values are in nM.
Every entry below has the call inconclusive.
Only part of the assay is shown, chiefly results filed as inconclusive.
Potencies fitted to partial, single-point or poorly fitting curves are rough.
Some entries filed as inconclusive have a full curve.
The first word of each remark tells which way the curve ran; it can be opposite to the aim of the assay.

structure	potency (nM)	curve as filed
CC(C)OC(=O)c1cc(C(=O)OC(C)C)cc([N+](=O)[O-])c1	199.5	rising, full curve
NCC(O)c1cc(O)c(O)cc1F (stereo not given)	112.2	rising, full curve
N.N.N.N.N.N.N.N.N.N.N.N.N.N.O.O.[Ru+4].[Ru+5].[Ru+5]	10000	cytotoxic, partial curve
N[C@@H](CCS(=O)O)C(=O)O	177.8	rising, full curve
CSc1ccc2c(c1)[C@H](N1CCN(C)CC1)Cc1ccccc1S2	12589	cytotoxic, partial curve
OC[C@@H]1[C@@H](O)[C@H](O)[C@H]2[C@@H](O)CCN21	501.2	rising, full curve, poor fit
COc1ccccc1-c1ccc2ncnc(N3CCN(C)CC3)c2c1	22387	cytotoxic, partial curve
Cc1ccc2c(c1)c1c3n2CCNC3CCC1 (stereo not given)	316.2	rising, full curve, poor fit
O=c1c(-c2cc(F)cc(F)c2)nc2cnc(N3CCNCC3)nc2n1-c1ccccc1	10000	cytotoxic, full curve
Oc1ccc2c3c1O[C@H]1c4[nH]c5ccccc5c4C[C@@]4(O)C(C2)N(CC2CC2)CCC314 (stereo not given in full)	25118	cytotoxic, partial curve
O=C(NCc1ccncc1)C(=O)Nc1nc(C23CC4CC(CC(C4)C2)C3)cs1	3756	cytotoxic, partial curve, poor fit
CC(C)[C@@]1(NC(=O)[C@@H]2C[C@H]3c4cccc5[nH]cc(c45)C[C@@H]3N(C)C2)O[C@@]2(O)[C@H]3CCCN3C(=O)[C@H](Cc3ccccc3)N2C1=O	794.3	rising, full curve
CN1CC[C@@H]2CN3CCc4cccc(c43)[C@H]2C1	12589	cytotoxic, partial curve, poor fit
CCOc1ncc(F)c(=O)[nH]1	199.5	rising, full curve
CCC(=O)O[C@H]1[C@H](O[C@@H]2[C@@H](C)[C@H](O[C@H]3C[C@@](C)(OC)[C@@H](O)[C@H](C)O3)[C@@H](C)C(=O)O[C@H](CC)[C@@](C)(O)[C@H](O)[C@@H](C)C(=O)[C@H](C)C[C@@]2(C)O)O[C@H](C)C[C@@H]1N(C)C	35481	cytotoxic, partial curve, poor fit
COCCn1c(=O)c(-c2ccccc2)nc2cnc(N3CCNCC3)nc21	15848	cytotoxic, partial curve
O=S(=O)(c1cccc2cnccc12)N1CCNCC1	25118	cytotoxic, single point
N#Cc1cccc(-c2nc(N3CCNCC3)c3ccccc3n2)c1	141.3	rising, full curve, poor fit
COCCn1c(=O)c(-c2ccc(Cl)cc2)nc2cnc(OC)nc21	15848	cytotoxic, partial curve, poor fit
COC(=O)[C@@H](N)Cc1ccc(O)c(O)c1	56.2	rising, full curve
Cc1ccccc1-c1nccc(Nc2ccc(F)cc2)n1	251.2	rising, full curve, poor fit
O=c1c(-c2ccccc2)nc2cnc(N3CCNCC3)nc2n1Cc1cccs1	15848	cytotoxic, partial curve
COc1cc(OC)cc(C(=O)N2CCN(Cc3ccccc3C(F)(F)F)CC2)c1	2984	cytotoxic, partial curve, poor fit
CCCOC(C(=O)OC1CCN(C)CC1)(c1ccccc1)c1ccccc1	125.9	rising, full curve, poor fit
c1ncc(CCCC2CCNCC2)[nH]1	112.2	rising, full curve
O=C(Nc1ncccn1)c1ccc([N+](=O)[O-])o1	23701	cytotoxic, single point
CN(C)CC[C@@H](c1ccc(Br)cc1)c1ccccn1	17782	cytotoxic, partial curve, poor fit
N=C(CC(O)COc1ccccc1-c1ccccc1)N1CCCCC1 (stereo not given)	125.9	rising, full curve
Cc1ccc(P(=O)(CSC(=N)N)c2ccc(C)cc2)cc1	6680	cytotoxic, full curve
CN(C(=O)Cc1ccc(Cl)c(Cl)c1)[C@H](CN1CCCC1)c1ccccc1	31622	cytotoxic, single point
c1ccc2c(N3CCNCC3)cccc2c1	11220	cytotoxic, full curve
O[C@@H](COc1cccc2ncccc12)CN1CCN(C2c3ccccc3[C@@H]3[C@H](c4ccccc42)C3(F)F)CC1 (stereo not given in full)	79.4	rising, full curve
Cc1cc(O)c2c(c1)C(=O)c1cc(O)cc(O)c1C2=O	8912	cytotoxic, full curve
NC(=S)c1ccc[n+]([C@@H]2O[C@@H](COP(=O)([O-])OP(=O)(O)OC[C@H]3O[C@@H](n4cnc5c(N)ncnc54)[C@H](OP(=O)(O)O)[C@@H]3O)C(O)C2O)c1 (stereo not given in full)	79.4	rising, full curve, poor fit
CN1CCN(c2ncc3nc(-c4cccs4)c(=O)n(-c4ccccc4)c3n2)CC1	281.8	rising, full curve, poor fit
COc1cc(N)c(Cl)cc1C(=O)N[C@H]1CCN(CCCOc2ccc(F)cc2)C[C@@H]1OC	112.2	rising, full curve
Fc1ccc(C(c2ccc(F)cc2)N2CCNCC2)cc1	15848	cytotoxic, partial curve, poor fit
CNc1cc2c(Nc3cccc(Br)c3)ncnc2cn1	28183	cytotoxic, single point
CCOC(=O)c1c(C)[nH]c2ccc3c(c12)CN1CCc2cc(OC)ccc2[C@@H]1O3	12589	cytotoxic, full curve
c1ccc(N2CCC3(CCNCC3)CC2)nc1	8912	cytotoxic, partial curve
COc1ccccc1N1CCN(CCN2C(=O)c3ccccc3C(C)(C)C2=O)CC1	12589	rising, partial curve, poor fit
COc1ccc(/C=C/C(=O)Nc2ccccc2C(=O)O)cc1OC	22387	cytotoxic, partial curve
CCC(Sc1ccccc1)C(=O)OC1CC2CCC(C1)N2C (stereo not given)	398.1	rising, full curve, poor fit
CN1CCc2cc(O)cc3c2[C@H]1Cc1ccc(O)c(O)c1-3	158.5	rising, full curve, poor fit
COc1ccc(C2Sc3ccccc3N(CCN(C)C)C(=O)[C@@H]2OC(C)=O)cc1 (stereo not given in full)	199.5	rising, full curve
O=Nc1c(-c2c(O)[nH]c3ccccc23)[nH]c2ccccc12	158.5	rising, full curve, poor fit
CC(C)N=C(N)N=C(N)Nc1ccc(Cl)cc1	891.3	rising, full curve

The results are deposited in PubChem (AID1508629; NCATS, 2021).